Reference: patent US9827224B2, “Methods and compositions for ameliorating pancreatic cancer” (University of South Alabama, priority 2010, dated 2017)
At least one structure is not confirmed: it was looked up by name or label, or the drawing left a doubt.

Key:
Akt = experiment: Western blot of Akt activation (total and phospho-forms) in Panc1 and MiaPaCa cells; assay type: cell-based, Human; conditions: pre-treatment 1 h (AMD3100 5 g/mL, LY294002 20 μM, PD98059 25 μM), 15 min post-CXCL12, Panc1 and MiaPaCa
Description: Cells were processed for protein extraction and western blotting using standard procedures. Briefly, cells were washed twice with PBS and scraped into NP-40 lysis buffer containing protease and phosphotase inhibitors. Cell lysates were passed through a needle syringe to facilitate the disruption of the cell membranes and were centrifuged at 14,000 rpm for 20 min at 4° C., and supematants were collected. Proteins (10-50 μg) were resolved by electrophoresis on 10% SDS-PAGE, transferred onto polyvinylidene difluoride (PVDF) membrane and subjected to standard immunodetection procedure using specific antibodies: AKT, pAKT ERK1/2, pERK1/2, Bcl-2, Bcl-xL, FAk, pFAk, Survivin, β-catenin and BAD (1:1000), pBAD (1:500), Notch-1 (1:200) and β-actin (1:20000). All secondary antibodies were used at 1:2500 dilutions. Blots were processed with ECL Plus Western Blotting detection kit and the signal detected using an LAS-3000 image analyzer (Fuji Photo Film Co., Tokyo, Japan).

Panc1 and MiaPaCa cells = experiment: Cell viability assay (Vybrant MTT cell proliferation assay), results stated for both cell lines together; assay type: cell-based, Human; conditions: pre-treatment 1 h (AMD3100 5 μg/mL, LY294002 20 μM, PD98059 25 μM), then gemcitabine + CXCL12
Description: After 72 h of treatment, cell growth was determined by using Vybrant MIT cell proliferation assay. Growth was calculated as percent (%)=[{(A/B)−1}×100], where A and B are the absorbance of treatment and control cells, respectively. To examine the effect of CXCR4 targeting, cells were pre-incubated with small molecule CXCR4 antagonist, AMD3100 (5 μg/mL), for 1 h. To delineate the role of Akt and ERK pathways, cells were pretreated for 1 h with LY294002 (20 μM) and PD98059 (25 μM), respectively.

Compound: O=c1cc(N2CCOCC2)oc2c(-c3ccccc3)cccc12 [LY294002]
- effect on CXCL12-induced activation of Akt pathway (Akt): specifically inhibited
- effect on CXCL12-induced chemo-resistance (gemcitabine) (Panc1 and MiaPaCa cells): significant negative impact
